For at least one entry, the source does not settle the construct or the ends of the probe. A negative result means that nothing was seen under these conditions. At least one verdict was read from the data and is not stated in words by the source.
System: PDGF (platelet-derived growth factor)
Test: impedance spectroscopy on aptamer-grafted interdigitated sensor
Conditions: PDGF in PBS, specificity control, values not in the material; grafted on NHS-functionalized mercapto monolayer; attachment group on the DNA not stated; proteins diluted in PBS (5 and 50 pM), about 25 °C, impedance 2.5-100 kHz; aptamer grafted at 50 nM, pH 8, 24 h; water pH 7 as control; commercial protein; single-stranded DNA

## ATACCAGTCTATTCAATTGGGCCCGTCCGTATGGTGGGTGTGCTGGCCAGATAGTATGTGCAATCA [VEGF165 DNA aptamer]
  binding result: no binding
